Article PMC12057046, “Elucidation of short linear motif-based interactions of the MIT and rhodanese domains of the ubiquitin-specific protease 8” (Biology Direct, 2025)
Results are given in words; binding and its absence hold for the method and conditions named. Binding seen in cells or lysates may run through a third protein. These calls come from enrichment with a bait or labelling near it, and not all partners need be listed. Where a sequence is shown, tags or fusion partners need not be part of it.

Protein sequences, listed by entry. Tags and fused reporters are not part of them. Lines headed by an entry give the natural chain unless they say otherwise; changes in a name come on top.
UniProt Q3V6T2: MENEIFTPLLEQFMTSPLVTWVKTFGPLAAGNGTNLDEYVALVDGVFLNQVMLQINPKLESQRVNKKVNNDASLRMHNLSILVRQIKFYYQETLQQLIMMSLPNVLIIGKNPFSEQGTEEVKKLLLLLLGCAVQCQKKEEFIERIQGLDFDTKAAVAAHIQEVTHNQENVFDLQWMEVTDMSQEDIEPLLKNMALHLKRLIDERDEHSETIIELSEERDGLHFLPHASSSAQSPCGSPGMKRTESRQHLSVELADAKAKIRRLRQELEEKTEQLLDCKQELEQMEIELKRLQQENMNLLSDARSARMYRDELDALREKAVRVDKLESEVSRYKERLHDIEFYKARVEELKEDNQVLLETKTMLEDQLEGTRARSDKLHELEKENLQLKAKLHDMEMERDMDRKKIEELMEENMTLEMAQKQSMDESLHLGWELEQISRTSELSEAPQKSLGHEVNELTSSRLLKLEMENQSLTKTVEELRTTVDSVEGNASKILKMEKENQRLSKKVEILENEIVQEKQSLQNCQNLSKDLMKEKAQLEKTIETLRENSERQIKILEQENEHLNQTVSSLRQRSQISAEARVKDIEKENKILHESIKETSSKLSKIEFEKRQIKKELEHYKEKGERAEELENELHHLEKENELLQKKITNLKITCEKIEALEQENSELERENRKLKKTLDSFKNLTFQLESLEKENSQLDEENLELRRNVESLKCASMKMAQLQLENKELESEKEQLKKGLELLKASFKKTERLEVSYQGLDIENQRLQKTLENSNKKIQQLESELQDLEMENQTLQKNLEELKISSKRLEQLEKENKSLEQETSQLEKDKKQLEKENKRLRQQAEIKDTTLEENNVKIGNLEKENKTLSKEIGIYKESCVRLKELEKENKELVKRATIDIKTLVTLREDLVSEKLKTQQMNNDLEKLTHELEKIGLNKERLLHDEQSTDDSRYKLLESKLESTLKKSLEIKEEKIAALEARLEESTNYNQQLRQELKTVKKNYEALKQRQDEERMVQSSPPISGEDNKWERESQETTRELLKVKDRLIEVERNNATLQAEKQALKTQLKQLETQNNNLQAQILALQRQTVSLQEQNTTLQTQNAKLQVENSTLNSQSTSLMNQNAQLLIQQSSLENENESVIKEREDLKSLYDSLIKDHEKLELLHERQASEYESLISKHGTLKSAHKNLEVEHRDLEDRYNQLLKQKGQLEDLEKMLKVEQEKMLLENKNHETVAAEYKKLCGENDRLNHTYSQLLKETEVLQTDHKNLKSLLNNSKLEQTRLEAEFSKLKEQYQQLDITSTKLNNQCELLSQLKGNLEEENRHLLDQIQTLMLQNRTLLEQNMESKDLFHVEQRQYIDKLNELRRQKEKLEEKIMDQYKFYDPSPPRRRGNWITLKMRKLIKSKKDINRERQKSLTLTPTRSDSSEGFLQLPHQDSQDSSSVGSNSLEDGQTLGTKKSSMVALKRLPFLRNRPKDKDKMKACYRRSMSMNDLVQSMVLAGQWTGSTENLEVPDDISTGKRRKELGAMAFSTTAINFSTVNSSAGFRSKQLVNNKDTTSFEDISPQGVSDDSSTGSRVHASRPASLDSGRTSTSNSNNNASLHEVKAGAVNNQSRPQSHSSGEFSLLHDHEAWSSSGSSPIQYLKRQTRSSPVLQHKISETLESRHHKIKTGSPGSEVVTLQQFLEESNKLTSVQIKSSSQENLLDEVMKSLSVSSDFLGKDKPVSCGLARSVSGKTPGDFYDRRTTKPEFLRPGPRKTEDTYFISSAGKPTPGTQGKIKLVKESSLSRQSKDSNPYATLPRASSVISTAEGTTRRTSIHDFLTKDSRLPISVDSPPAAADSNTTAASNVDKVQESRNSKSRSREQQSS
UniProt P55347: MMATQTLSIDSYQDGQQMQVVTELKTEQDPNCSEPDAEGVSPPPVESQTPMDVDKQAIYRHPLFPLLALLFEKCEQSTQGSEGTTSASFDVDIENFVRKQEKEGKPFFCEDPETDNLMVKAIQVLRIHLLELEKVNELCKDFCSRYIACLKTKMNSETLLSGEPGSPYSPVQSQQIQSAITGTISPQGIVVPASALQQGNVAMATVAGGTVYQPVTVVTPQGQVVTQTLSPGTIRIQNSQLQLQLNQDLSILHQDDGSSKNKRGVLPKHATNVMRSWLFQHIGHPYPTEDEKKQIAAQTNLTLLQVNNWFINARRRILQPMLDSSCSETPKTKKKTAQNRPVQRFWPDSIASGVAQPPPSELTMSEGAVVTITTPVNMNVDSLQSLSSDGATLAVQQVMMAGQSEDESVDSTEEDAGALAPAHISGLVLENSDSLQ

molecular target: T1, GST-tagged USP8 MIT domain (1-142) (human) (UniProt P40818); experiment: proteomic peptide-phage display (ProP-PD) selection; 10 µg GST-tagged bait immobilised on MaxiSorp plate; M13 phage library of the human disorderome pre-cleared on GST; four rounds, PBS, 2 h at 4 °C; enriched pools read by NGS; only the target purified
T1 sequence: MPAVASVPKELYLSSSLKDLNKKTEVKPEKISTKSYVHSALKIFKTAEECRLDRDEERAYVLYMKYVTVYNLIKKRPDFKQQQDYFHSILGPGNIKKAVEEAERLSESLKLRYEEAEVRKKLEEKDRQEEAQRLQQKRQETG

Row | Binder | binding
1 | EVEHRDLEDRYNQLLK (peptide, UniProt Q3V6T2 1192-1207) [Girdin 1192-1207 peptide, displayed on M13 phage] | binds
2 | SEVSDIESRIAALRAA [Melanophilin 481-496 peptide, displayed on M13 phage] | binds
3 | MDDDYEAYHSLFLSLL [EFCAB12 1-16 peptide, displayed on M13 phage] | binds
4 | YVDLDAFLLEHGLPPS [DBP 116-131 peptide, displayed on M13 phage] | binds
5 | SQKELESYMMRAQQLL (peptide, UniProt Q8WXH0 853-868) [SYNE2 853-868 peptide, displayed on M13 phage] | binds
6 | QAIYRHPLFPLLALLF (peptide, UniProt P55347 56-71) [PKNOX1 56-71 peptide, displayed on M13 phage] | binds
